{
  "sequences": {"note": "Sequences of proteins named here, by UniProt entry; tags and fusion partners are left off. A change or cut given only in a name is not applied to a line headed by its entry.", "UniProt P18054": "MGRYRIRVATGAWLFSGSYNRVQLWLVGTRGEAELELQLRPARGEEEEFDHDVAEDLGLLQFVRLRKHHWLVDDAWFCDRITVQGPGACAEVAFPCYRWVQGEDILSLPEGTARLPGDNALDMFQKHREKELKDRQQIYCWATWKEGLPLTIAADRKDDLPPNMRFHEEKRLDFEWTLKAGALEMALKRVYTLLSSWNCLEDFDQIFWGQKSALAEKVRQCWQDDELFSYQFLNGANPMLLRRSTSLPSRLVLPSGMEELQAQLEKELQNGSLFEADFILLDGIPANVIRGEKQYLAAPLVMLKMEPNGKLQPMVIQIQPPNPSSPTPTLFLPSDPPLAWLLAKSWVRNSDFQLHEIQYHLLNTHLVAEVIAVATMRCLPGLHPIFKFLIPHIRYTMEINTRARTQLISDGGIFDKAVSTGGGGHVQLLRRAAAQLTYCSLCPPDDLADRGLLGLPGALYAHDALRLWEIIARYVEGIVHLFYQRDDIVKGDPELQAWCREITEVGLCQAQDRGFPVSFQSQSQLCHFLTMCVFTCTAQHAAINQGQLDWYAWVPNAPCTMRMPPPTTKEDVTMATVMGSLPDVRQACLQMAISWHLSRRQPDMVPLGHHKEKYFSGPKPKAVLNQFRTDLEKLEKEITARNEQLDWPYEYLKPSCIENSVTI"},
  "source": "PubChem BioAssay AID1671190",
  "about": "(National Center for Advancing Translational Sciences (NCATS), 2021)",
  "note": "The campaign covered roughly 580,000 compounds. About 6,100 (1.1%) were called active. This list was built around the results that the source calls inconclusive (neither active nor inactive); the mix of calls is not that of the screen. Calls come from the whole dose curve; as a rule, active = well fitted inhibition curve with a large enough effect; inconclusive = small, poorly fitted or top-dose-only effect, or another doubt; inactive = no such curve, though single readings can be large or run the other way. A potency beside an inconclusive call is a rough fit, not a confirmed value. Some structures have more than one record in an assay (separate samples or runs), and their calls can disagree. Potency is the fitted concentration of half-maximal effect.",
  "data": [
    {"molecular_target": "Polyunsaturated fatty acid lipoxygenase ALOX12 (Homo sapiens) (UniProt P18054)", "assay": "Primary qHTS assay for inhibitors of human arachidonate 12S-lipoxygenase (ALOX12): Round 2", "conditions": "purified 12hLO, xylenol orange hydroperoxide absorbance; series mostly up to 108 µM", "outline": "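Hydroperoxide product was detected by ferrous iron/xylenol orange as the 573 to 405 nm absorbance ratio. Arachidonic acid at 40 uM (final) was turned over for 30 min at room temperature by 150 nM human 12hLO, pH 7.0 Hepes buffer, after 15 min compound preincubation.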", "values": [
      {"smiles": "CC1CC(=O)c2cc(-c3ccccc3)oc2C1", "note": "(stereo not drawn)", "Potency": "inconclusive: 50.1 µM [inhibitor, partial curve, poor fit]"},
      {"smiles": "Cc1cc(C)c2c(=O)c3c(oc2c1)C(=O)N(Cc1ccc(F)cc1)C3c1cccc(O)c1", "note": "(stereo not drawn)", "Potency": "inconclusive: 0.708 µM [inhibitor, full curve, poor fit]"},
      {"smiles": "CCn1c(N)[n+](CC(=O)Nc2ccc(SC(F)F)cc2)c2ccccc21", "Potency": "inconclusive: 44.7 µM [inhibitor, partial curve, poor fit]"},
      {"smiles": "Cc1cc2oc(=O)cc(CN3CCCCC3C)c2cc1C", "note": "(stereo not drawn)", "Potency": "active: 11.2 µM"},
      {"smiles": "C#CCOc1ccc(C2C3=C(CCCC3=O)N(CC(=O)O)C3=C2C(=O)CCC3)cc1Br", "Potency": "inconclusive: 126 µM [inhibitor, partial curve, poor fit]"},
      {"smiles": "CC(=O)Oc1c(Cl)cc(Cl)cc1/C=C/c1ccc2ccccc2n1", "Potency": "inactive"},
      {"smiles": "CC1CCN(CCOc2ccc(OCc3ccccc3)cc2)CC1", "Potency": "inconclusive: 0.251 µM [inhibitor, full curve, poor fit]"},
      {"smiles": "CN(C)/C=C/C(=O)c1cc(F)cc(C(F)(F)F)c1", "Potency": "inconclusive: 44.7 µM [inhibitor, partial curve]"},
      {"smiles": "CNc1nc(-c2ccc(NC(=O)CC(C)C)cc2)cs1", "Potency": "inconclusive: 8.91 µM [inhibitor, full curve, poor fit]"},
      {"smiles": "COc1ccc(C2SCC(=O)N2c2nc3ccccc3s2)cc1", "note": "(stereo not drawn)", "Potency": "inactive"},
      {"smiles": "CC(=O)NC12CC3CC(C1)CC(C(=O)NC1CCCc4ccccc41)(C3)C2", "note": "(stereo not drawn)", "Potency": "inactive"},
      {"smiles": "Cc1ccc2nc(N(CCCN(C)C)C(=O)c3sc4ccccc4c3Cl)sc2c1", "Potency": "inconclusive: 50.1 µM [inhibitor, partial curve, poor fit]"},
      {"smiles": "O=C(O)c1cc(-c2ccc3cc[nH]c3c2)cc(S(=O)(=O)N2CCSCC2)c1", "Potency": "inconclusive: 14.1 µM [inhibitor, full curve]"},
      {"smiles": "O=C(O)CN1C(=O)/C(=C\\c2cccc(OCc3ccccc3)c2)SC1=S", "Potency": "inconclusive: 44.7 µM [inhibitor, partial curve, poor fit]"},
      {"smiles": "COc1ccccc1Cn1c(C)c2c(=O)n(-c3ccc(F)cc3)[nH]c2cc1=O", "Potency": "inconclusive: 35.5 µM [inhibitor, partial curve, poor fit]"},
      {"smiles": "CCc1noc(C)c1C(=O)NNC(=O)c1cc(OC)c(OC)c(OC)c1", "Potency": "inconclusive: 39.8 µM [inhibitor, partial curve, poor fit]"},
      {"smiles": "CCCCNC(=S)N/N=C1\\CCCCc2ccccc21", "Potency": "active: 31.6 µM"},
      {"smiles": "O=C(NC1CCCN(Cc2ccc(Cl)cc2)C1)c1c(F)ccc(F)c1F", "note": "(stereo not drawn)", "Potency": "inconclusive: 70.8 µM [inhibitor, partial curve, poor fit]"},
      {"smiles": "Fc1cc(F)cc(Cc2nc3nccc(-c4cccs4)n3n2)c1", "Potency": "inactive"},
      {"smiles": "CCN1CC2=C(OC(N)=C(C#N)C2c2ccccc2)/C(=C\\c2ccccc2)C1", "note": "(stereo not drawn)", "Potency": "inconclusive: 50.1 µM [inhibitor, partial curve, poor fit]"},
      {"smiles": "COc1cccc(NC(=O)CN2CCCN(S(=O)(=O)c3ccc(Br)cc3)CC2)c1", "Potency": "inconclusive: 44.7 µM [inhibitor, partial curve, poor fit]"},
      {"smiles": "Cc1cc(OCCCCCNCCO)cc(C)c1Cl", "Potency": "inactive"},
      {"smiles": "CS(=O)(=O)c1ccc(NC(=O)CN(Cc2cccs2)CC2CCCO2)cc1", "note": "(stereo not drawn)", "Potency": "inactive"},
      {"smiles": "COc1ccc(-c2cccc3c2NC(=O)C3=O)cc1OC", "Potency": "inactive"},
      {"smiles": "CN(c1ccccc1)S(=O)(=O)c1cccc(C(=O)NCC(c2cccs2)N2CCOCC2)c1", "note": "(stereo not drawn)", "Potency": "inactive"},
      {"smiles": "CC(=O)Nc1ccc(Nc2c([N+](=O)[O-])cc(S(C)(=O)=O)cc2[N+](=O)[O-])cc1", "Potency": "inconclusive: 8.91 µM [inhibitor, full curve, poor fit]"},
      {"smiles": "CC(C(=O)NCc1ccc(F)cc1)n1ccc2cc(S(=O)(=O)N3CCCC3)ccc21", "note": "(stereo not drawn)", "Potency": "inactive"},
      {"smiles": "COc1ccc(C)cc1NC(=O)NC(c1ccccc1)c1nnc(-c2ccccc2Cl)o1", "note": "(stereo not drawn)", "Potency": "inactive"},
      {"smiles": "O=C(OCC#CCSc1nnc(-c2ccccc2)o1)c1cccs1", "Potency": "inactive"},
      {"smiles": "N#Cc1c(N)sc2c1CCCCC2", "Potency": "inconclusive: 31.6 µM [inhibitor, partial curve, poor fit]"},
      {"smiles": "COc1cc(CN(C)CC2CCCN(CCc3ccccc3F)C2)cc(Cl)c1OC", "note": "(stereo not drawn)", "Potency": "inconclusive: 31.6 µM [inhibitor, partial curve]"},
      {"smiles": "O=C(O)C[C@@H]1CCN(Cc2ccc(F)cc2)C[C@@H]1CCN1C[C@@H]2C[C@H](C1)c1cccc(=O)n1C2", "Potency": "inconclusive: 12.6 µM [inhibitor, full curve]"},
      {"smiles": "Cc1ccc(Nc2nc(Cl)nc(NC(C)(C)C)n2)cc1", "Potency": "inconclusive: 35.5 µM [inhibitor, partial curve, poor fit]"},
      {"smiles": "COCC1CN(C(=O)NCc2cccc(OC)c2)CC12CCNCC2", "note": "(stereo not drawn)", "Potency": "inconclusive: 79.4 µM [inhibitor, single point]"},
      {"smiles": "CCn1ccc2cc(S(=O)(=O)N3CCC(C(=O)N4CCN(C)CC4)CC3)ccc21", "Potency": "inconclusive: 39.8 µM [inhibitor, partial curve, poor fit]"},
      {"smiles": "O=C(Nc1ccc(SC(F)F)cc1)c1cc(-c2cccs2)on1", "Potency": "inactive"},
      {"smiles": "CC(=O)c1ccc(NC(=O)CSc2nnc(NC(=O)CN3CCOCC3)s2)cc1", "Potency": "inconclusive: 39.8 µM [inhibitor, partial curve, poor fit]"},
      {"smiles": "COC(=O)c1sc2cccc(F)c2c1S(=O)(=O)N1CCN(c2ccccc2OC)CC1", "Potency": "inconclusive: 89.1 µM [inhibitor, partial curve, poor fit]"},
      {"smiles": "Cc1ccc(C(C(=O)Nc2ccc3c(c2)OCCO3)N(C)C(=O)Cc2cccs2)cc1", "note": "(stereo not drawn)", "Potency": "inconclusive: 35.5 µM [inhibitor, full curve, poor fit]"},
      {"smiles": "CCn1cc(C(=O)O)c(=O)c2cnc(N3CCN(C(=S)NC(=O)c4ccccc4)CC3)nc21", "Potency": "inactive"},
      {"smiles": "CCOc1ccc(NC(=O)c2c(C)nn(-c3cccc(C)c3)c2-n2cccc2)cc1", "Potency": "inconclusive: 126 µM [inhibitor, single point]"},
      {"smiles": "CCn1ccnc1CNCc1cn(-c2cc(C)ccc2C)nc1-c1ccccc1", "Potency": "inactive"},
      {"smiles": "CC(C)OCCCNC(=S)NC1CCCC1", "Potency": "active: 35.5 µM"},
      {"smiles": "CC(OC(=O)c1ccc2c(c1)NC(=O)CS2)C(=O)c1ccccc1", "note": "(stereo not drawn)", "Potency": "inconclusive: 50.1 µM [inhibitor, partial curve, poor fit]"},
      {"smiles": "COc1ccc(NC(=O)c2c(NC(=O)CCC(=O)O)sc3c2CCC(C(C)(C)C)C3)cc1", "note": "(stereo not drawn)", "Potency": "inconclusive: 0.316 µM [inhibitor, full curve, poor fit]"},
      {"smiles": "Cc1cc(C)cc(NC(=O)C2CCC(CNC(=O)[C@@H]3Cc4ccccc4CN3)CC2)c1", "note": "(stereo partly drawn)", "Potency": "inactive"},
      {"smiles": "CC(=O)c1cccc(NC(=O)CCCN2C(=O)COc3ccc(C)cc32)c1", "Potency": "inconclusive: 50.1 µM [inhibitor, partial curve, poor fit]"},
      {"smiles": "CCCCC[C@H](C)N1C[C@H](COCc2ccccc2)Oc2cc(N3CCC[C@@H]3CO)ccc2S1(=O)=O", "Potency": "inconclusive: 44.7 µM [inhibitor, partial curve, poor fit]"},
      {"smiles": "Oc1ccc(O)c([S+]2CCCC(C3CCCCC3)C2)c1", "note": "(stereo not drawn)", "Potency": "active: 17.8 µM"},
      {"smiles": "Clc1ccc(-c2csc(-c3cccnc3)n2)s1", "Potency": "inactive"},
      {"smiles": "COc1ccc(CNc2ccc3cc(S(=O)(=O)N4CCCCC4)ccc3n2)cc1", "Potency": "inconclusive: 50.1 µM [inhibitor, partial curve, poor fit]"},
      {"smiles": "Cn1nc(C(=O)Nc2ccccc2Cl)cc1C(=O)Nc1ccccc1Cl", "Potency": "inconclusive: 141 µM [inhibitor, single point]"},
      {"smiles": "N#Cc1cc2c(nc1SCc1ccccc1Cl)CCCC2=O", "Potency": "inconclusive: 44.7 µM [inhibitor, partial curve, poor fit]"},
      {"smiles": "c1ccc(-c2nnc([C@H]3CCN(Cc4ccc5c(c4)OCO5)C3)o2)cc1", "Potency": "inconclusive: 39.8 µM [inhibitor, full curve, poor fit]"},
      {"smiles": "Cc1cc(N)ccc1-c1ccc(N)cc1C", "Potency": "inconclusive: 3.98 µM [inhibitor, full curve, poor fit]"},
      {"smiles": "Cc1oc(-c2ccccc2)nc1C(=O)Nc1ccccc1F", "Potency": "inactive"},
      {"smiles": "CCOC(=O)c1cnc2cc(C(F)(F)F)ccc2c1N1CCN(c2ccc(F)cc2)CC1", "Potency": "inconclusive: 1.58 µM [inhibitor, full curve, poor fit]"},
      {"smiles": "COC(=O)c1sccc1NC(=S)NCc1ccc(Cl)cc1", "Potency": "inconclusive: 56.2 µM [inhibitor, single point]"},
      {"smiles": "COc1cc(C(C)=O)ccc1OCC(=O)Nc1cc(Cl)ccc1-n1cncn1", "Potency": "inactive"},
      {"smiles": "CC(C)c1ccc(/C=C2\\Oc3cc(OS(C)(=O)=O)ccc3C2=O)cc1", "Potency": "inconclusive: 31.6 µM [inhibitor, partial curve]"},
      {"smiles": "O=C(c1ccc(Cl)c(Cl)c1)N1CCC(=O)N(C(COCc2ccccc2)Cc2ccccc2)CC1", "note": "(stereo not drawn)", "Potency": "inconclusive: 44.7 µM [inhibitor, partial curve]"},
      {"smiles": "COc1c(C)cc(C(=O)C2CCCN(Cc3ccc(Oc4ncccn4)cc3)C2)cc1C", "note": "(stereo not drawn)", "Potency": "inactive"},
      {"smiles": "Cc1ccc(C)c(S(=O)(=O)N2CCCN(C)c3ccccc32)c1", "Potency": "inactive"},
      {"smiles": "O=C1C(N2CCN(S(=O)(=O)c3ccc(F)cc3F)CC2)CCN1Cc1ccccn1", "note": "(stereo not drawn)", "Potency": "inactive"},
      {"smiles": "CCN(CC)CCCNc1ccc2ncn3c4ccc(O)cc4c(=O)c1c23", "Potency": "inconclusive: 50.1 µM [inhibitor, partial curve, poor fit]"},
      {"smiles": "Cn1c(=O)c2c(nc(NC3CCCCC3)n2Cc2c(F)cccc2Cl)n(C)c1=O", "Potency": "inactive"},
      {"smiles": "O=C(C[C@@H]1CCNC[C@@H]1Cc1cc(COc2ccccc2)on1)NCc1cccnc1", "Potency": "inconclusive: 31.6 µM [inhibitor, full curve]"},
      {"smiles": "COc1ccc(NC(=O)CN(C)C(=O)/C=C/c2ccc(S(=O)(=O)N3CCCCCC3)cc2)cc1", "Potency": "inconclusive: 89.1 µM [inhibitor, partial curve, poor fit]"}
    ]}
  ]
}
